# Primary screen of a compound library

Protein sequences, listed by entry. Tags and fused reporters are not part of them.
UniProt E9BF75, entry or part of it: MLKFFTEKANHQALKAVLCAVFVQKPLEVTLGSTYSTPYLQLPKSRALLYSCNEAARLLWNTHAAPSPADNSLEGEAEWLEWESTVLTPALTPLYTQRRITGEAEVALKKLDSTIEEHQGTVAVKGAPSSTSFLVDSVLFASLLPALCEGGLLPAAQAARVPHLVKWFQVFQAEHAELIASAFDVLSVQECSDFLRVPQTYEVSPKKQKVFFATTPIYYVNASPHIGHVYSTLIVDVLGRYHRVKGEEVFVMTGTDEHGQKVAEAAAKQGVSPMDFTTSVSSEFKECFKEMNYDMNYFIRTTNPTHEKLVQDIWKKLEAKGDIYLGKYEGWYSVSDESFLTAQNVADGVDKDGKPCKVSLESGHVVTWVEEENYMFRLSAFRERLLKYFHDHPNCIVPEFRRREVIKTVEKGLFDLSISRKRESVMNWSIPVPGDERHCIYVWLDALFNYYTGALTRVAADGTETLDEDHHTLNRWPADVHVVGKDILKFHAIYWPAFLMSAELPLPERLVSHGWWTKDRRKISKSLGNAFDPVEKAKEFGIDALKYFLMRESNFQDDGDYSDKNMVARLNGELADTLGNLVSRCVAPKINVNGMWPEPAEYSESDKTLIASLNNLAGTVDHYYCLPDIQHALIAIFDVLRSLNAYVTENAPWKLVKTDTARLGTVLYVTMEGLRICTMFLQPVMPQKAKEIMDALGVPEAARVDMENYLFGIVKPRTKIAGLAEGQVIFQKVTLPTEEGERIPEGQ

Results are percentages, as filed. The record does not define 0% and 100%; most values in the screen are far below 50% and negative numbers occur (in some assays of this library far below -100). This is an unselected part of the compounds tested. A dash means the value is not listed here; it may have been measured.

LdMetRS: 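Primary screen of methionyl-tRNA synthetase; the read-out is not stated. Target: Methionyl-tRNA synthetase (putative), Leishmania donovani (UniProt E9BF75). The test concentration is not given. The values are filed as inhibition. Size under these conditions: about 68,000 compounds, about 24 of them at 50% or above in at least one test.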
Mtb heat-shock: 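Assay on Mycobacterium tuberculosis, filed only as a heat shock assay from Cornell; the read-out is not stated. The concentration is filed as 10 mM, unlikely as a test dose, so the dose is not known. Higher reads as stronger inhibition (inferred: compounds with an IC50 in retests scored well above the rest). Of about 69,000 compounds tested this way, about 930 (1.4%) reached 50% or more in at least one test.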

structure	LdMetRS	Mtb heat-shock
CC(C)c1cc(C(=O)NCCN2CCOCC2)nc(N2CCCC2)n1	-26.38%	-4.507%
Cn1cc(-c2nc3c(cc2C(=O)O)CCN(C(=O)C2CC2)CC3)cn1.O=C(O)C(F)(F)F	-	-3.502%
COc1ccc(CN2CCOC3(CCCN(c4cnccn4)C3)C2)cc1 (stereo not drawn)	6.569%	-
CN(CC(O)COc1ccc(C(F)(F)F)cc1)C(=O)Nc1nncs1 (stereo not drawn)	6.46%	2.935%
Cc1cccc(CNCC2COC3(CCCCC3)O2)c1C (stereo not drawn)	1.748%	-15.29%
CCOC1COC2(CCN(Cc3cccc(F)c3)CC2)C1.O=C(O)C(F)(F)F (stereo not drawn)	-	-9.066%
Cc1cccnc1NC(=O)NCc1cccnc1OC(C)C	25.5%	0.6534%
O=C(O)C(F)(F)F.O=C(O)C(F)(F)F.[H][C@]12CCN(Cc3cccnc3)CC[C@@]1([H])S(=O)(=O)N(CC(C)C)C2	-	-7.462%
CC(=O)N(Cc1noc(C)n1)C1CCN(Cc2ccc(C#N)cc2)C1 (stereo not drawn)	11.48%	-42.54%
Cc1noc(C)c1CN1CCCC2(CCN(CC3CCCC3)C2)C1.O=C(O)C(F)(F)F (stereo not drawn)	-	-3.039%
O=C(c1cccs1)N1CCC2(C1)c1ccccc1S(=O)(=O)N2CC1CC1 (stereo not drawn)	13.59%	-178.6%
O=C(O)c1nnn(Cc2cccc(C(F)(F)F)c2)c1-c1cccnc1	14.52%	-1.24%
Cn1cccc1C(=O)N1C[C@H](OCC2CCOCC2)[C@H]2COC[C@H]21	-41.46%	-
CCC(CO)NC(=O)Cc1ccc(NC(=O)CC2=CCCCC2)cc1 (stereo not drawn)	12.2%	-1.669%
O=C(O)C(F)(F)F.O=C(O)C(F)(F)F.[H][C@@]12CN(CCOC)CCO[C@]1([H])CN(Cc1ccc(C)o1)C2	-	-14.86%
COc1ccc(NC(=O)c2nc3ccccc3n(C)c2=O)cc1OC	6.197%	-7.231%
COc1cccc(CNCc2cccnc2)c1	10.76%	-33.75%
CN(Cc1nnc(-c2ccco2)o1)C1CCCN(c2cccnn2)C1 (stereo not drawn)	5.521%	11.29%
CC(=O)N1CC[C@H]2CC(=O)N(CCc3c[nH]cn3)CC[C@H]2C1	1.695%	-
O=C(NC1CC1)C1CCN(Cn2nc(-c3ccccc3)oc2=O)CC1	21.12%	-9.061%
Cc1cnn(CC2CCCCN2CCn2cncn2)c1 (stereo not drawn)	4.196%	-8.502%
CC(C)NC(=O)CCNC(=O)c1c(Br)c2ccccc2n1C	7.521%	-16.88%
CCCS(=O)(=O)N1CCN(C(C)(C)CO)CC1	5.263%	-12.54%
CN1CCCC2(CCN(S(=O)(=O)c3c(Cl)nc4sccn34)C2)C1=O (stereo not drawn)	13.23%	-4.064%
CCc1[nH]ncc1C(=O)N1CCCC(n2nc(C)nc2C)C1 (stereo not drawn)	6.135%	-0.4914%
CC(=O)Nc1nc(C(=O)NC(C)c2ccc(F)cc2)cs1 (stereo not drawn)	15.97%	8.426%
N#Cc1ccccc1N1CCC(Nc2nccnc2C#N)CC1	7.853%	-9.476%
CN(C)C(=O)COCc1nnc2n1CCN(Cc1ccoc1)C2.O=C(O)C(F)(F)F	-	3.767%
[H][C@@]12CS(=O)(=O)C[C@]1([H])N(C(=O)c1ccnn1C)CCN2C(=O)C1CC1	-	-5.236%
Cc1ccccc1CC(=O)N1C[C@@H](O)[C@H](N2CCN(C)CC2)C1	19.62%	-1.235%
CCCn1ncc(CN2C[C@@H]3CCCN3C[C@H]2CCSC)c1C	15.53%	-
O=C(NC1CC(=O)N(C2Cc3ccccc3C2)C1)c1ccsc1 (stereo not drawn)	3.377%	14.3%
CCCc1nc(CN2CCOC(CNc3cccnn3)C2)cs1 (stereo not drawn)	9.15%	38.46%
Cc1ccc(C(=O)O)cc1-c1cccc2c1CCNC2	15.93%	11.66%
O=C(c1cccnc1)N(Cc1ccncc1)C1CC1	-2.842%	8.106%
[H][C@]12CC[C@]([H])(CN(C3Cc4ccccc4C3)C1)N(C(=O)CSC)C2	-	-1.391%
O=C(N1CCOCC1)N1C[C@@H]2OCCN(C(=O)c3ccco3)[C@@H]2C1	8.219%	-
CCc1cnc(CNC(=O)N2CCCC(c3ncc[nH]3)C2)s1 (stereo not drawn)	12.23%	28.14%
COc1c(C2CCCN2C(=O)c2cnc(C)cn2)c(C)nn1C (stereo not drawn)	-1.425%	-24.7%
Cc1ccc(C(=O)Nc2cc(C(C)C)n[nH]2)cn1	14.17%	-12.21%
COc1nc(C)c(C(=O)N2CCN(c3ncccc3C)CC2)s1	4.902%	-20.88%
O=C(O)C(F)(F)F.O=C(O)C(F)(F)F.O=C1NCC[C@]12CN(Cc1cccnc1)C[C@H]2c1ccccc1	-	-20.58%

From ChEMBL document CHEMBL3988442, “University of Dundee, Small-Polar-MMV Screening Library” (2021).